Reference: publication PMC10746710
No constants are given. Whether binding was seen depends on the method and setting. Binding seen in cells or lysates may run through a third protein. A yes stands for co-enrichment or nearness to the bait. Other partners may have been found.

The chains behind the UniProt entries cited, without tags or fusion partners. Where a name states a change or a piece, a line headed by the entry shows the natural chain unless it says otherwise. A line that says so, or that is headed by a name, gives the form on record, which may keep a tag or linker.
UniProt Q8N6T7: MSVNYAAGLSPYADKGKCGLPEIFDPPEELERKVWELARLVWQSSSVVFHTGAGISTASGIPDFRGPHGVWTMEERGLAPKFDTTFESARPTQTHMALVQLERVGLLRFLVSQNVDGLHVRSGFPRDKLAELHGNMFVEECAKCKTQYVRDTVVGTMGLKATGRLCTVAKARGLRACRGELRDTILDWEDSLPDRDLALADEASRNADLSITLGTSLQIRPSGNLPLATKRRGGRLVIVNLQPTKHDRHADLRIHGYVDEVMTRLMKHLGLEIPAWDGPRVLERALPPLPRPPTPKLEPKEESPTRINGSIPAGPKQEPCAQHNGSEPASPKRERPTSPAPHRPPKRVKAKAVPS
retinoid-related orphan nuclear receptor gamma t (RORγt), endogenous in HBE cells (P51449-2, form named): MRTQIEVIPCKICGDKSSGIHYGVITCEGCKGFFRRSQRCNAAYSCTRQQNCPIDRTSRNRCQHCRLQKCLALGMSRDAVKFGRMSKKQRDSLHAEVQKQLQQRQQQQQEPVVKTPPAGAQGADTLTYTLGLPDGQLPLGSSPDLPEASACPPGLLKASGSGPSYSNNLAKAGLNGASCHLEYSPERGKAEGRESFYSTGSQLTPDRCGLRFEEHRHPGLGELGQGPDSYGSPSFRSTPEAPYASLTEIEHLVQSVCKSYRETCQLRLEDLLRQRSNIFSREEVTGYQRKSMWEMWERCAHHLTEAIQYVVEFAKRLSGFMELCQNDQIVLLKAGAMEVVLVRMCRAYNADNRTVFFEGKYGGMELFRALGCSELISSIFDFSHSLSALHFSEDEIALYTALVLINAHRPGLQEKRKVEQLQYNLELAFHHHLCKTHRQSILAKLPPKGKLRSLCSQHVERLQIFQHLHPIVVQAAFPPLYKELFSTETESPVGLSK

Molecular target: sirtuin 6 (SIRT6), endogenous in HBE cells (human (endogenous in HBE)) (UniProt Q8N6T7)
Test: affinity purification with mass spectrometry; co-immunoprecipitation of SIRT6, immunoprecipitate digested with trypsin and analysed by mass spectrometry; cells not given

binding: binds
Substance: retinoid-related orphan nuclear receptor gamma t (RORγt), endogenous in HBE cells (from UniProt P51449-2 1-497)
